Data taken from patent US20040241164A1.
Results are given in words; binding and its absence hold for the method and conditions named. Some entries that bind do so weakly or less than the wild type.

Sequences of proteins named here, by UniProt entry; tags and fusion partners are left off. Residues count along the entry.
UniProt P05067, residues 672-711: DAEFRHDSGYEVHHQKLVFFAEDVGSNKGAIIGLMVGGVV

Target: soluble Aβ (UniProt P05067)
Assay: worded comparison of affinities

binding: binds
B1: humanized 266 antibody (antibody, human IgG1, kappa, V domains shown)
VH: EVQLVESGGGLVQPGGSLRLSCAASGFTFSRYSMSWVRQAPGKGLELVAQINSVGNSTYYPDTVKGRFTISRDNAKNTLYLQMNSLRAEDTAVYYCASGDYWGQGTLVTVSS
VL: DVVMTQSPLSLPVTLGQPASISCRSSQSLIYSDGNAYLHWFLQKPGQSPRLLIYKVSNRFSGVPDRFSGSGSGTDFTLKISRVEAEDVGVYYCSQSTHVPWTFGQGTKVEIKR
